Test results published in the supplement of paper PMC12889115.
The list shows a part of the results. Values are raw readings; no control value is given beside them.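 Primary screen: polymyxin B was added at a level permeabilizing Salmonella outer membranes while sparing inner membranes. DMSO wells, both with and without polymyxin B, established maximum growth. Plate-to-plate variation meant each plate was ranked on its own, and the lowest-OD600 compounds were selected as hits.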

Tested on: Salmonella enterica serovar Typhimurium SL1344
Assay: bacterial growth OD600 after 18 h with compound and polymyxin B; higher = more bacterial growth (less inhibition)
Conditions: 50 µM, Mueller-Hinton broth

| Structure (SMILES) | bacterial growth OD600 (polymyxin B 1 µg/mL) | bacterial growth OD600 (polymyxin B 0.75 µg/mL) |
| --- | --- | --- |
| COc1cccc(OCc2cc(C(=O)N3CCCC(OC)C3)no2)c1 (centres undefined) | 1.28 |  |
| COCCC(=O)NC1CC(=O)N(Cc2cccc(F)c2)C1 (centres undefined) | 0.9 |  |
| O=C(C1CCCN(Cc2nc(-c3cccc(Cl)c3)no2)C1)N1CCOCC1 (centres undefined) | 0.741 |  |
| O=C(COc1ccccc1)N[C@@H]1c2ccccc2C2(CCN(Cc3cc(Cl)ccc3O)CC2)[C@H]1O |  | 0.792 |
| Cc1ncc(CN(C)C2CCCN(CCc3ccccc3)C2)n1C (centres undefined) |  | 0.779 |
| O=C(c1ccc(N2CCC(NC(c3ccncc3)c3ccc(Cl)cc3)CC2)cc1)N1CCOCC1 (centres undefined) |  | 0.894 |
| CN(Cc1ccccc1)C1(CNC(=O)c2ccc[n+]([O-])c2)Cc2ccccc2C1 | 0.947 |  |
| COc1cc(=O)n2c(c1C(=O)NC(C)c1ccco1)CCN(Cc1cnn(C)c1C)CC2 (centres undefined) |  | 0.839 |
| O=C(Cn1nnnc1CN1CCOCC1)N1CCN(Cc2cccc(F)c2)CC1 | 0.635 |  |

Reformatted in CSV form: two of the compounds above.
Structure (SMILES),bacterial growth OD600 (polymyxin B 1 µg/mL),bacterial growth OD600 (polymyxin B 0.75 µg/mL)
COc1cccc(OCc2cc(C(=O)N3CCCC(OC)C3)no2)c1 (centres undefined),1.28,
COCCC(=O)NC1CC(=O)N(Cc2cccc(F)c2)C1 (centres undefined),0.9,
